For data set [1] the following is noted: eight weeks of storage at 40 degrees C., relative humidity 75%.
The conditions of data set [2]: background dissolution studies; cited from earlier work.

`O=C(O)c1cn(C2CC2)c2cc(N3CCNCC3)c(F)cc2c1=O` [1-cyclopropyl-6-fluoro-1,4-dihydro-4-oxo-7-(1-piperazinyl)-3-quinolinecarboxylic acid]: in data set [1], the “single impurity after storage” value stood at 0.06%.

Turning to `O=C(O)c1cn(C2CC2)c2cc(N3CCNCC3)c(F)cc2c1=O` [hydrated form of ciprofloxacin], the “dissolution rate, hydrated form compared with anhydrous form” value in data set [2] was “significantly lower dissolution rate than the anhydrous form”.

(Values after patent publication US20080300258A1, “ANHYDROUS CIPROFLOXACIN HYDROCHLORIDE” (priority 2007, published 2008).)
